Assay results reported in paper PMC10214663.
These are yes or no findings as the source states them, for the method shown. Some binding calls cover weakened binding; strength is not graded here. Tags and fused reporters may be left off the sequences shown.

What was measured:
Experiment in all cases: overlay or dot blot; galectin array: recombinant galectins (0,5 pmol) dot-blotted on PVDF, blocked with 3% BSA, incubated overnight with FGFs-Fc or Fc (0,9 pM); anti-Fc mAb-HRP and chemiluminescence; with FGF4-Fc also done in the presence of lactose (Fig. S1); both purified
galectin-3 (human) = galectin-3 (human) (UniProt P17931)
galectin-7 (human) = galectin-7 (human) (UniProt P47929)
galectin-1 (human) = galectin-1 (human) (UniProt P09382)

binding (galectin-3 (human)): binds | binding (galectin-7 (human)): binds | binding (galectin-1 (human)): binds
B1: FGF10-Fc (Fc fusion, UniProt O15520 38-208)
chain: QALGQDMVSPEATNSSSSSFSSPSSAGRHVRSYNHLQGDVRWRKLFSFTKYFLKIEKNGKVSGTKKENCPYSILEITSVEIGVVAVKAINSNYYLAMNKKGKLYGSKEFNNDCKLKERIEENGYNTYASFNWQHNGRQMYVALNGKGAPRRGQKTRRKNTSAHFLPMVVHS
modifications: N-glycosylated (two putative N-glycosylation sites; shift on PNGase F treatment)
